Structures can show the parent of a compound that is named as a salt. This is one part of the list. Hit calls seldom repeat between salt and free forms of one compound.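 Kinases, fused to nanoluciferase, were expressed in K562 cells; luminescence was measured every 4 h from 2 to 18 h as percent of control (DMSO = 100%, positive control = 0%). A time point is decreased if signal falls significantly (2 sigma). Hits were called by the authors by a rule that is not shown; the count of time points alone does not decide it.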
What follows are molecules tested against CDK9 (UniProt P50750) (assay: number of time points (of 4; 2 h point missing) at which kinase-Nluc abundance scored as decreased, DMSO-normalised (count); higher = more persistent destabilization). Conditions: 2.5 µM; K562; 2-18 h.

Chains of the proteins cited; added tags and fusions are not shown.
UniProt P50750, whole entry: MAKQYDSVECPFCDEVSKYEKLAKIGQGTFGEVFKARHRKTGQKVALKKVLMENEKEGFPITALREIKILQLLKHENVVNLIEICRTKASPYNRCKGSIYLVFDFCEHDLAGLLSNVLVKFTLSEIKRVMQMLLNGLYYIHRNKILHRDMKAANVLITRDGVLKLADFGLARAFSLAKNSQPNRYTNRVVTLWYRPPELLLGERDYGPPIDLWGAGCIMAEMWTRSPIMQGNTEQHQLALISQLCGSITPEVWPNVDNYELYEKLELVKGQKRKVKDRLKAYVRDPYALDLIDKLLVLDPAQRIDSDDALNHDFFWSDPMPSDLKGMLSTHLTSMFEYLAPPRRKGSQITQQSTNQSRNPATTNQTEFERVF

`C=CC(=O)Nc1cc(Nc2nccc(-c3cn(C)c4ccccc34)n2)c(OC)cc1N(C)CCN(C)C` [Osimertinib] and `CCN(CC)Cc1ccc(OC)c(-c2cc3c(-c4ccc(C(=O)O)c(C(C)C)c4)ccnc3[nH]2)c1` are the same in “number of time points” value: 0 for the first, 0 for the second.

First: C=CC(=O)Nc1cc2c(Nc3ccc(F)c(Cl)c3)ncnc2cc1C#CC(C)(C)N1CCN(C)CC1 [AV-412 (free base)]
Second: C=CC(=O)N1CCN(c2ncnc3c(F)c(-c4c(O)cccc4F)c(Cl)cc23)CC1
The “number of time points” value of the first is higher: 1 for the first, 0 for the second.

Compared with `COc1cc2nccc(Oc3ccc(NC(=O)C4(C(=O)Nc5ccc(F)cc5)CC4)cc3)c2cc1OC` [Cabozantinib], `COc1cc2c(Oc3ccc4[nH]c(C)cc4c3F)ncnc2cc1OCCCN1CCCC1` [Cediranib] is lower in “number of time points” value: 1 for the first, 0 for the second.

`Nc1ncnc2c1c(-c1ccc(Oc3ccccc3)cc1)nn2[C@@H]1CCCNC1` and `c1cc(-c2cnn3cc(-c4ccc(OCCN5CCCCC5)cc4)cnc23)ccn1` [Dorsomorphin (dihydrochloride)] are the same in “number of time points” value: 0 for the first, 0 for the second.

For `CN1CCCN(C(=O)c2cccc(-c3ccc(/C=C4/C(=O)Nc5ccc(Cl)cc54)o3)c2)CC1` [CX-6258 (hydrochloride hydrate)], the “number of time points” value was 0.

Same assay, conditions: 10 µM; K562; 2-18 h

First: N#CC[C@H](C1CCCC1)n1cc(-c2ncnc3[nH]ccc23)cn1 [Ruxolitinib (phosphate)]
Second: CCS(=O)(=O)N1CCN(c2ccc(Nc3ncc(C(N)=O)c(NC4CC4)n3)cc2)CC1 [Cerdulatinib (hydrochloride)]
The “number of time points” value of the first is lower: 0 for the first, 1 for the second.

`C=CC(=O)Nc1cc(Nc2ncc(C(=O)OC(C)C)c(-c3cn(C)c4ccccc34)n2)c(OC)cc1N(C)CCN(C)C` [Mobocertinib (succinate)] and `CCN(CC)Cc1ccc(OC)c(-c2cc3c(-c4ccc(C(=O)O)c(C(C)C)c4)ccnc3[nH]2)c1` are the same in “number of time points” value: 0 for the first, 0 for the second.

First: CN(C)C/C=C/C(=O)Nc1cc2c(Nc3ccc(F)c(Cl)c3)ncnc2cc1O[C@H]1CCOC1 [Afatinib]
Second: C#Cc1cccc(Nc2ncnc3cc4c(cc23)OCCOCCOCCO4)c1 [Icotinib]
The “number of time points” value of the first is higher: 4 for the first, 0 for the second.

Going from `COc1ccc2c(c1)C(c1ccc(F)cc1)=C(CN1CCCC1)CO2` [AX-024 hydrochloride] to `Clc1ccc(C2(c3ccc(-c4cn[nH]c4)cc3)CCNCC2)cc1`, the “number of time points” value rises from 0 to 1.

`C[C@H](CCC(=O)NCCS(=O)(=O)O)[C@H]1CC[C@H]2[C@@H]3[C@@H](O)C[C@@H]4C[C@H](O)CC[C@]4(C)[C@H]3CC[C@]12C` [Tauroursodeoxycholate (sodium)] and `CCS(=O)(=O)N1CCN(c2ccc(Nc3ncc(C(N)=O)c(NC4CC4)n3)cc2)CC1` [Cerdulatinib] are the same in “number of time points” value: 0 for the first, 0 for the second.

`CCCC(=O)Nc1ncnc2c1ncn2[C@@H]1O[C@@H]2COP(=O)(O)O[C@H]2[C@H]1OC(=O)CCC` [Bucladesine (sodium)] and `COCCOc1cc(F)c2c(Nc3ccc(NC(=O)Cn4cc(C(C)C)nn4)cc3)ncnc2c1` are the same in “number of time points” value: 0 for the first, 0 for the second.

`COc1cc2c(cc1OC)-c1c(C)c3ccc(OC)c(OC)c3c[n+]1CC2` [Dehydrocorydaline] and `COc1cc2nccc(Nc3cc(OC)c(OC)c(OC)c3)c2cc1OC` [GAK inhibitor 49] are the same in “number of time points” value: 0 for the first, 0 for the second.

`CC(C)Nc1cc(-c2c[nH]c(C(=O)N[C@H](CO)c3cccc(Cl)c3)c2)c(Cl)cn1` [Ulixertinib (hydrochloride)] and `CNc1ncc2cc(-c3ccc(-c4cccc(C)n4)cc3Cl)c(=O)n(C[C@H]3OC[C@H](N)CO3)c2n1` are the same in “number of time points” value: 0 for the first, 0 for the second.

`C=CC(=O)N1CCN(c2ncnc3c(F)c(-c4c(O)cccc4F)c(Cl)cc23)CC1` and `O=C(Nc1cnn2ccc(N3CCC[C@@H]3c3cc(F)ccc3F)nc12)N1CC[C@H](O)C1` [Larotrectinib sulfate] are the same in “number of time points” value: 0 for the first, 0 for the second.

`Cn1cc(-c2cnc3ccc4ccc(CS(=O)(=O)NCc5ccccn5)cc4c(=O)c3c2)cn1` [MK-8033 (hydrochloride)] and `CNc1ncc2cc(-c3ccc(-c4cccc(C)n4)cc3Cl)c(=O)n(C[C@H]3OC[C@H](N)CO3)c2n1` [G-5555 (hydrochloride)] are the same in “number of time points” value: 0 for the first, 0 for the second.

`Nc1cncc(-c2cn3ccnc3c(Nc3ccc(N4CCN(C5COC5)CC4)cc3)n2)n1` [Lanraplenib (succinate)] and `CNC(=O)c1ccccc1Nc1cc(Nc2ccc(N3CCOCC3)cc2OC)ncc1C(F)(F)F` are the same in “number of time points” value: 0 for the first, 0 for the second.

`CNC(=O)c1ccc(Nc2ncc(C(F)(F)F)c(NCc3nccnc3N(C)S(C)(=O)=O)n2)cc1` [Defactinib (hydrochloride)] and `O=C(Nc1cnn2ccc(N3CCC[C@@H]3c3cc(F)ccc3F)nc12)N1CC[C@H](O)C1` [Larotrectinib] are the same in “number of time points” value: 0 for the first, 0 for the second.

`COc1cc2c(cc1OC)-c1c(C)c3ccc(OC)c(OC)c3c[n+]1CC2` [Dehydrocorydaline (chloride)] and `COc1ccc2c(c1)C(c1ccc(F)cc1)=C(CN1CCCC1)CO2` are the same in “number of time points” value: 0 for the first, 0 for the second.

`CCN(CC)CC(=O)Nc1c(C)cccc1C` [Lidocaine] and `COc1cc(/C=C/C(=O)O)ccc1O` [Ferulic acid] are the same in “number of time points” value: 0 for the first, 0 for the second.
